Laboratory results published in patent US20250283871A1, “COMPOSITIONS AND METHODS FOR MODULATING THE INTERACTION BETWEEN SS18-SSX FUSION ONCOPROTEIN AND NUCLEOSOMES” (Dana-Farber Cancer Institute, Inc., priority 2020, published 2025).

Tested on: BAF complex subunits and histone proteins
Test: Mass spectrometry proteomics of purified HA-SS18 WT and HA-SS18-SSX1 complexes (Tables 5A-5E)
Parameters: species or system human
Conditions: for Total / Unique: HA-SS18SSX1_CHR_peptides; for Total: total peptides of the identified protein; for Unique: unique peptides of the identified protein; for Total (total peptides) / Unique (unique peptides): HA-SS18SSX1 purification, NE (soluble nuclear extract) fraction, peptides per identified protein; for Total (total peptides) / Unique (unique peptides) / Total (peptides) / Unique (peptides): HEK-293T
[1] = HA-SS18WT_CHR_peptides: HA-SS18 WT purification from nuclease-treated solubilized chromatin (CHR), label = protein identified
[2] = HA-SS18WT_NE_peptides: HA-SS18 WT complexes purified from nuclear extract (NE), label = protein identified (Gene Symbol)
[3] = HA-SS18WT_NE_peptides: proteins co-purified with HA-SS18 WT from nuclear extract (NE)

Row | Molecule | Total | Unique | Total (total peptides) | Unique (unique peptides) | Total (peptides) [1] | Unique (peptides) [1] | Total (peptides) [2] | Unique (peptides) [2] | Total (peptides) [3] | Unique (peptides) [3]
1 | SUGP2 (protein, UniProt Q8IX01 1-1082, looked up) SURP and G-patch …: MAARRITQETFDAVLQEKAKRYHMDASGEAVSETLQFKAQDLLRAVPRSRAEMYDDVHSDGRYSLSGSVAHSRDAGREGLRSDVFPGPSFRSSNPSISDDSYFRKECGRDLEFSHSDSRDQVIGHRKLGHFRSQDWKFALRGSWEQDFGHPVSQESSWSQEYSFGPSAVLGDFGSSRLIEKECLEKESRDYDVDHPGEADSVLRGGSQVQARGRALNIVDQEGSLLGKGETQGLLTAKGGVGKLVTLRNVSTKKIPTVNRITPKTQGTNQIQKNTPSPDVTLGTNPGTEDIQFPIQKIPLGLDLKNLRLPRRKMSFDIIDKSDVFSRFGIEIIKWAGFHTIKDDIKFSQLFQTLFELETETCAKMLASFKCSLKPEHRDFCFFTIKFLKHSALKTPRVDNEFLNMLLDKGAVKTKNCFFEIIKPFDKYIMRLQDRLLKSVTPLLMACNAYELSVKMKTLSNPLDLALALETTNSLCRKSLALLGQTFSLASSFRQEKILEAVGLQDIAPSPAAFPNFEDSTLFGREYIDHLKAWLVSSGCPLQVKKAEPEPMREEEKMIPPTKPEIQAKAPSSLSDAVPQRADHRVVGTIDQLVKRVIEGSLSPKERTLLKEDPAYWFLSDENSLEYKYYKLKLAEMQRMSENLRGADQKPTSADCAVRAMLYSRAVRNLKKKLLPWQRRGLLRAQGLRGWKARRATTGTQTLLSSGTRLKHHGRQAPGLSQAKPSLPDRNDAAKDCPPDPVGPSPQDPSLEASGPSPKPAGVDISEAPQTSSPCPSADIDMKTMETAEKLARFVAQVGPEIEQFSIENSTDNPDLWFLHDQNSSAFKFYRKKVFELCPSICFTSSPHNLHTGGGDTTGSQESPVDLMEGEAEFEDEPPPREAELESPEVMPEEEDEDDEDGGEEAPAPGGAGKSEGSTPADGLPGEAAEDDLAGAPALSQASSGTCFPRKRISSKSLKVGMIPAPKRVCLIQEPKVHEPVRIAYDRPRGRPMSKKKKPKDLDFAQQKLTDKNLGFQMLQKMGWKEGHGLGSLGKGIREPVSVGTPSEGEGLGADGQEHKEDTFDVFRQRMMQMYRHKRANK | 4 | 4 | – | – | – | – | – | – | – | –
2 | ATAD3A (protein, UniProt Q9NVI7 2-586, looked up) ATPase family AAA …: SWLFGINKGPKGEGAGPPPPLPPAQPGAEGGGDRGLGDRPAPKDKWSNFDPTGLERAAKAARELEHSRYAKDALNLAQMQEQTLQLEQQSKLKEYEAAVEQLKSEQIRAQAEERRKTLSEETRQHQARAQYQDKLARQRYEDQLKQQQLLNEENLRKQEESVQKQEAMRRATVEREMELRHKNEMLRVEAEARARAKAERENADIIREQIRLKAAEHRQTVLESIRTAGTLFGEGFRAFVTDWDKVTATVAGLTLLAVGVYSAKNATLVAGRFIEARLGKPSLVRETSRITVLEALRHPIQVSRRLLSRPQDALEGVVLSPSLEARVRDIAIATRNTKKNRSLYRNILMYGPPGTGKTLFAKKLALHSGMDYAIMTGGDVAPMGREGVTAMHKLFDWANTSRRGLLLFVDEADAFLRKRATEKISEDLRATLNAFLYRTGQHSNKFMLVLASNQPEQFDWAINDRINEMVHFDLPGQEERERLVRMYFDKYVLKPATEGKQRLKLAQFDYGRKCSEVARLTEGMSGREIAQLAVSWQATAYASEDGVLTEAMMDTRVQDAVQQHQQKMCWLKAEGPGRGDEPSPS | 4 | 4 | 14 | 13 | 3 | 3 | 20 | 15 | – | –
3 | MAU2 (protein, UniProt Q9Y6X3 1-613, looked up) MAU2 chromatid cohesion …: MAAQAAAAAQAAAAQAAQAEAADSWYLALLGFAEHFRTSSPPKIRLCVHCLQAVFPFKPPQRIEARTHLQLGSVLYHHTKNSEQARSHLEKAWLISQQIPQFEDVKFEAASLLSELYCQENSVDAAKPLLRKAIQISQQTPYWHCRLLFQLAQLHTLEKDLVSACDLLGVGAEYARVVGSEYTRALFLLSKGMLLLMERKLQEVHPLLTLCGQIVENWQGNPIQKESLRVFFLVLQVTHYLDAGQVKSVKPCLKQLQQCIQTISTLHDDEILPSNPADLFHWLPKEHMCVLVYLVTVMHSMQAGYLEKAQKYTDKALMQLEKLKMLDCSPILSSFQVILLEHIIMCRLVTGHKATALQEISQVCQLCQQSPRLFSNHAAQLHTLLGLYCVSVNCMDNAEAQFTTALRLTNHQELWAFIVTNLASVYIREGNRHQEVLYSLLERINPDHSFPVSSHCLRAAAFYVRGLFSFFQGRYNEAKRFLRETLKMSNAEDLNRLTACSLVLLGHIFYVLGNHRESNNMVVPAMQLASKIPDMSVQLWSSALLRDLNKACGNAMDAHEAAQMHQNFSQQLLQDHIEACSLPEHNLITWTDGPPPVQFQAQNGPNTSLASLL | 4 | 4 | – | – | – | – | – | – | – | –
4 | MTA2 (protein, UniProt O94776 1-668, looked up) Metastasis-associated protein …: MAANMYRVGDYVYFENSSSNPYLVRRIEELNKTANGNVEAKVVCLFRRRDISSSLNSLADSNAREFEEESKQPGVSEQQRHQLKHRELFLSRQFESLPATHIRGKCSVTLLNETDILSQYLEKEDCFFYSLVFDPVQKTLLADQGEIRVGCKYQAEIPDRLVEGESDNRNQQKMEMKVWDPDNPLTDRQIDQFLVVARAVGTFARALDCSSSIRQPSLHMSAAAASRDITLFHAMDTLQRNGYDLAKAMSTLVPQGGPVLCRDEMEEWSASEAMLFEEALEKYGKDFNDIRQDFLPWKSLASIVQFYYMWKTTDRYIQQKRLKAAEADSKLKQVYIPTYTKPNPNQIISVGSKPGMNGAGFQKGLTCESCHTTQSAQWYAWGPPNMQCRLCASCWIYWKKYGGLKTPTQLEGATRGTTEPHSRGHLSRPEAQSLSPYTTSANRAKLLAKNRQTFLLQTTKLTRLARRMCRDLLQPRRAARRPYAPINANAIKAECSIRLPKAAKTPLKIHPLVRLPLATIVKDLVAQAPLKPKTPRGTKTPINRNQLSQNRGLGGIMVKRAYETMAGAGVPFSANGRPLASGIRSSSQPAAKRQKLNPADAPNPVVFVATKDTRALRKALTHLEMRRAARRPNLPLKVKPTLIAVRPPVPLPAPSHPASTNEPIVLED | 4 | 4 | – | – | 4 | 4 | – | – | – | –
5 | TMEM43 (protein, UniProt Q9BTV4 2-400, looked up) Transmembrane protein 43: AANYSSTSTRREHVKVKTSSQPGFLERLSETSGGMFVGLMAFLLSFYLIFTNEGRALKTATSLAEGLSLVVSPDSIHSVAPENEGRLVHIIGALRTSKLLSDPNYGVHLPAVKLRRHVEMYQWVETEESREYTEDGQVKKETRYSYNTEWRSEIINSKNFDREIGHKNPSAMAVESFMATAPFVQIGRFFLSSGLIDKVDNFKSLSLSKLEDPHVDIIRRGDFFYHSENPKYPEVGDLRVSFSYAGLSGDDPDLGPAHVVTVIARQRGDQLVPFSTKSGDTLLLLHHGDFSAEEVFHRELRSNSMKTWGLRAAGWMAMFMGLNLMTRILYTLVDWFPVFRDLVNIGLKAFAFCVATSLTLLTVAAGWLFYRPLWALLIAGLALVPILVARTRVPAKKLE | 4 | 4 | – | – | – | – | – | – | 2 | 2
6 | SFXN1 (protein, UniProt Q9H9B4 2-322, looked up) Sideroflexin-1: SGELPPNINIKEPRWDQSTFIGRANHFFTVTDPRNILLTNEQLESARKIVHDYRQGIVPPGLTENELWRAKYIYDSAFHPDTGEKMILIGRMSAQVPMNMTITGCMMTFYRTTPAVLFWQWINQSFNAVVNYTNRSGDAPLTVNELGTAYVSATTGAVATALGLNALTKHVSPLIGRFVPFAAVAAANCINIPLMRQRELKVGIPVTDENGNRLGESANAAKQAITQVVVSRILMAAPGMAIPPFIMNTLEKKAFLKRFPWMSAPIQVGLVGFCLVFATPLCCALFPQKSSMSVTSLEAELQAKIQESHPELRRVYFNKGL | 4 | 4 | 11 | 9 | 7 | 6 | 11 | 9 | – | –
7 | SRSF4 (protein, UniProt Q08170 1-494, looked up) Serine/arginine-rich splicing …: MPRVYIGRLSYQARERDVERFFKGYGKILEVDLKNGYGFVEFDDLRDADDAVYELNGKDLCGERVIVEHARGPRRDGSYGSGRSGYGYRRSGRDKYGPPTRTEYRLIVENLSSRCSWQDLKDYMRQAGEVTYADAHKGRKNEGVIEFVSYSDMKRALEKLDGTEVNGRKIRLVEDKPGSRRRRSYSRSRSHSRSRSRSRHSRKSRSRSGSSKSSHSKSRSRSRSGSRSRSKSRSRSQSRSRSKKEKSRSPSKEKSRSRSHSAGKSRSKSKDQAEEKIQNNDNVGKPKSRSPSRHKSKSKSRSRSQERRVEEEKRGSVSRGRSQEKSLRQSRSRSRSKGGSRSRSRSRSKSKDKRKGRKRSREESRSRSRSRSKSERSRKRGSKRDSKAGSSKKKKKEDTDRSQSRSPSRSVSKEREHAKSESSQREGRGESENAGTNQETRSRSRSNSKSKPNLPSESRSRSKSASKTRSRSKSRSRSASRSPSRSRSRSHSRS | 4 | 4 | – | – | – | – | – | – | – | –
